Experimental data from article PMC12735921, “Evaluation of Antiproliferative Activity and Molecular Modeling Studies of Some Novel Benzimidazolone-Bridged Hybrid Compounds” (Pharmaceuticals, 2025).
Several values for one entry are separate records, joined by “and”; a condition that tells them apart may be missing. Equal values may be shown once.

Tested on: A549, MCF-7, and HeLa cells
Experiment: MTT cell viability assay, ranges stated across the cancer cell lines
Assay type: cell-based, human
Conditions: range or bound over A549, MCF-7, HeLa; HEK 293 as reference
Method: Cell viability assay was performed on the human lung cancer (A549) (ATCC CCL-185), human breast cancer (MCF-7) (ATCC-HTB-22), cervical cancer (HeLa) (ATCC-CCL-2), and human embryonic kidney 293 (HEK293) (ATCC-CRL-1573) cell lines, which were purchased from Deutsche Sammlung von Mikroorganismen und Zellkulturen (DSMZ, Braunschweig, Germany). The cells were maintained in Dulbecco’s modified Eagle’s medium (DMEM), supplemented with 10% fetal bovine serum (FBS), 2 mM L-glutamine, 100 U/mL penicillin, and 100 mg/L streptomycin (Biochrom AG, Berlin, Germany) at 37 °C in a humidified atmosphere of 5% CO2.
The cytotoxic effect was determined by the MTT (3-(4,5-dimethyl-2-thiazolyl)-2,5-diphenyl-2H-tetrazolium bromide) cell viability assay. Cells were seeded at an initial concentration of 1 × 10^5 cells/mL in 96-well microplates. Cells were then treated with different concentrations (0.5, 5, 10, 25, 50, 100 and 200 µM) of the novel synthesized compounds for 48 h. After the incubation period, the formed formazan crystals were dissolved in dimethyl sulfoxide (DMSO), and the optical density (OD) of the compounds was measured at 570 nm using a spectrophotometer (BMG Labtech, Ortenberg, Germany). Cytotoxicity was expressed as an increase in the mean percentage of cytotoxicity relative to the unexposed control ± standard deviation (SD). […] Control values were set at 0% cytotoxicity. IC50 was calculated by fitting the data to a sigmoidal curve using a four-parameter logistic model and was presented as an average of three independent measurements. […] Doxorubicin was used as a positive control. Each sample was tested in triplicate.
To evaluate the selectivity of the tested compound(s) toward cancer cells over normal cells, the Selectivity Index (SI) was calculated using the following formula:SI = IC50 (normal cells)/IC50 (cancer cells)
An SI value greater than 2 was considered to indicate selective cytotoxicity, while values below 2 were interpreted as non-selective. Higher SI values reflect greater therapeutic potential due to reduced toxicity toward normal cells.

O=C(O)Cn1c(=O)n(CC(=O)O)c2cc(Cl)c(Cl)cc21 [Compound 6, 2,2′-(5,6-Dichloro-2-oxo-1H-benzo[d]imidazole-1,3(2H)-diyl)diacetic Acid]
SI values across the tested cancer cell lines: ≥ 2.0

O=C(Cn1c(=O)n(CC(=O)c2ccccc2)c2cc(Cl)c(Cl)cc21)c1ccccc1 [Compound 8, 5,6-Dichloro-1,3-bis(2-oxo-2-phenylethyl)-1,3-dihydro-2H-benzimidazol-2-one]
SI values across the tested cancer cell lines: 0.73–0.91

O=c1n(CN2CCN(c3ccc(Cl)cc3)CC2)c2cc(Cl)c(Cl)cc2n1CN1CCN(c2ccc(Cl)cc2)CC1 [Compound 9, 5,6-Dichloro-1,3-bis((4-(4-chlorophenyl)piperazin-1-yl)methyl)-1H-benzo[d]imidazol-2(3H)-one]
SI values across the tested cancer cell lines: 1.35–1.78 and < 2

CCN(CC)c1ccc2cc(C(=O)NNC(=O)Cn3c(=O)n(CC(=O)NNC(=O)c4cc5ccc(N(CC)CC)cc5oc4=O)c4cc(Cl)c(Cl)cc43)c(=O)oc2c1 [Compound 12f]
SI values across the tested cancer cell lines: 1.49 to 1.84
